From a melanoma drug combination screen (doi:10.1371/journal.pone.0140310); values rounded.

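The test systems are human melanoma cell lines, treated with a pair of drugs for 72 h and then stained and imaged. Each value is the cleaved-PARP-positive fraction of nuclei relative to DMSO-treated wells, in %, so that 100 equals the control and higher values mean more apoptosis. Concentrations were fixed for each drug; these are the higher of two levels. The file gives one value for each pair and line, without errors, so small differences may be noise. The marker varies much from line to line, for technical or biological reasons.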
An unselected part of the screen is shown.
A dash means that no value is listed here.

First drug in all entries: ZM336372, 10 µM, Cc1ccc(NC(=O)c2cccc(N(C)C)c2)cc1NC(=O)c1ccc(O)cc1

Drugs:
vatalanib (10 µM): Clc1ccc(Nc2nnc(Cc3ccncc3)c3ccccc23)cc1
JZL184 (5 µM): O=C(Oc1ccc([N+](=O)[O-])cc1)N1CCC(C(O)(c2ccc3c(c2)OCO3)c2ccc3c(c2)OCO3)CC1
FH535 (5 µM): Cc1cc([N+](=O)[O-])ccc1NS(=O)(=O)c1cc(Cl)ccc1Cl
veliparib (7 µM): C[C@]1(c2nc3c(C(N)=O)cccc3[nH]2)CCCN1
BI-78D3 (1 µM): O=c1[nH]nc(Sc2ncc([N+](=O)[O-])s2)n1-c1ccc2c(c1)OCCO2
RKI-983 (2 µM): C[C@@H](N)c1ccc(C(=O)Nc2ccnc3[nH]ccc23)cc1
nilutamide (5 µM): CC1(C)NC(=O)N(c2ccc([N+](=O)[O-])c(C(F)(F)F)c2)C1=O
T0901317 (7 µM): O=S(=O)(c1ccccc1)N(CC(F)(F)F)c1ccc(C(O)(C(F)(F)F)C(F)(F)F)cc1
lenalidomide (5 µM): Nc1cccc2c1CN(C1CCC(=O)NC1=O)C2=O (centres unmarked)
YM155 (0.002 µM): COCC[n+]1c2c(n(Cc3cnccn3)c1C)C(=O)c1ccccc1C2=O
temozolomide (10 µM): Cn1nnc2c(C(N)=O)ncn2c1=O
decitabine (0.5 µM): Nc1ncn([C@H]2C[C@H](O)[C@@H](CO)O2)c(=O)n1
CHIR-265 (0.4 µM): Cn1c(Nc2ccc(C(F)(F)F)cc2)nc2cc(Oc3ccnc(-c4ncc(C(F)(F)F)[nH]4)c3)ccc21
embelin (6 µM): CCCCCCCCCCCC1=C(O)C(=O)C=C(O)C1=O
bexarotene (10 µM): C=C(c1ccc(C(=O)O)cc1)c1cc2c(cc1C)C(C)(C)CCC2(C)C
midostaurin (0.4 µM): CO[C@@H]1[C@H](N(C)C(=O)c2ccccc2)C[C@H]2O[C@]1(C)n1c3ccccc3c3c4c(c5c6ccccc6n2c5c31)C(=O)NC4
crizotinib (1 µM): C[C@@H](Oc1cc(-c2cnn(C3CCNCC3)c2)cnc1N)c1c(Cl)ccc(F)c1Cl
gemcitabine (0.002 µM): Nc1ccn([C@@H]2O[C@H](CO)[C@@H](O)C2(F)F)c(=O)n1
ruxolitinib (5 µM): N#CC[C@H](C1CCCC1)n1cc(-c2ncnc3[nH]ccc23)cn1
GW0742 (10 µM): Cc1cc(SCc2sc(-c3ccc(C(F)(F)F)c(F)c3)nc2C)ccc1OCC(=O)O
etoposide (0.1 µM): COc1cc([C@@H]2c3cc4c(cc3[C@@H](O[C@@H]3O[C@@H]5CO[C@@H](C)O[C@H]5[C@H](O)[C@H]3O)[C@H]3COC(=O)[C@H]23)OCO4)cc(OC)c1O

Partner	UACC-62	COLO 800	MeWo	WM451Lu	MZ2-MEL	UACC-257
etoposide	142	123	139	-	132	69.6
YM155	190	97.1	764	127	113	903
JZL184	48.5	79.9	125	177	110	30.3
veliparib	151	204	39.3	106	67.6	167
BI-78D3	130	179	205	130	105	196
gemcitabine	108	226	200	332	181	156
lenalidomide	127	72.2	22.5	32.0	156	112
midostaurin	153	280	156	91.3	743	163
RKI-983	171	104	186	130	312	50.6
bexarotene	144	86.9	74.3	64.7	205	53.5
FH535	110	74.8	81.3	18.8	193	558
crizotinib	92.7	79.3	36.0	111	150	144
vatalanib	184	21.5	39.9	53.7	238	157
CHIR-265	248	148	124	276	124	186
decitabine	121	120	77.6	95.3	152	148
nilutamide	87.8	86.9	141	74.3	74.3	134
temozolomide	173	163	142	30.9	83.9	69.6
ruxolitinib	85.8	108	113	176	277	156
embelin	26.8	149	191	108	69.3	72.2
GW0742	123	95.7	247	55.4	180	39.7
T0901317	159	56.3	108	146	128	17.2